Literature values, collected in patent publication US20030099710A1, “Granule modulating hydrogel system” (priority 1998, published 2003).

Conditions: background statement, no test described

minimum therapeutic plasma naproxen concentrations: 30 to 60 µg/mL
Structure (SMILES): COc1ccc2cc([C@H](C)C(=O)O)ccc2c1 [Naproxen]
